Results on 37 targets are retold here after the supplement of paper PMC11006884.

Protein sequences, listed by entry. Tags and fused reporters are not part of them. Lines headed by an entry give the natural chain unless they say otherwise; changes in a name come on top.
UniProt P35579, whole entry, looked up: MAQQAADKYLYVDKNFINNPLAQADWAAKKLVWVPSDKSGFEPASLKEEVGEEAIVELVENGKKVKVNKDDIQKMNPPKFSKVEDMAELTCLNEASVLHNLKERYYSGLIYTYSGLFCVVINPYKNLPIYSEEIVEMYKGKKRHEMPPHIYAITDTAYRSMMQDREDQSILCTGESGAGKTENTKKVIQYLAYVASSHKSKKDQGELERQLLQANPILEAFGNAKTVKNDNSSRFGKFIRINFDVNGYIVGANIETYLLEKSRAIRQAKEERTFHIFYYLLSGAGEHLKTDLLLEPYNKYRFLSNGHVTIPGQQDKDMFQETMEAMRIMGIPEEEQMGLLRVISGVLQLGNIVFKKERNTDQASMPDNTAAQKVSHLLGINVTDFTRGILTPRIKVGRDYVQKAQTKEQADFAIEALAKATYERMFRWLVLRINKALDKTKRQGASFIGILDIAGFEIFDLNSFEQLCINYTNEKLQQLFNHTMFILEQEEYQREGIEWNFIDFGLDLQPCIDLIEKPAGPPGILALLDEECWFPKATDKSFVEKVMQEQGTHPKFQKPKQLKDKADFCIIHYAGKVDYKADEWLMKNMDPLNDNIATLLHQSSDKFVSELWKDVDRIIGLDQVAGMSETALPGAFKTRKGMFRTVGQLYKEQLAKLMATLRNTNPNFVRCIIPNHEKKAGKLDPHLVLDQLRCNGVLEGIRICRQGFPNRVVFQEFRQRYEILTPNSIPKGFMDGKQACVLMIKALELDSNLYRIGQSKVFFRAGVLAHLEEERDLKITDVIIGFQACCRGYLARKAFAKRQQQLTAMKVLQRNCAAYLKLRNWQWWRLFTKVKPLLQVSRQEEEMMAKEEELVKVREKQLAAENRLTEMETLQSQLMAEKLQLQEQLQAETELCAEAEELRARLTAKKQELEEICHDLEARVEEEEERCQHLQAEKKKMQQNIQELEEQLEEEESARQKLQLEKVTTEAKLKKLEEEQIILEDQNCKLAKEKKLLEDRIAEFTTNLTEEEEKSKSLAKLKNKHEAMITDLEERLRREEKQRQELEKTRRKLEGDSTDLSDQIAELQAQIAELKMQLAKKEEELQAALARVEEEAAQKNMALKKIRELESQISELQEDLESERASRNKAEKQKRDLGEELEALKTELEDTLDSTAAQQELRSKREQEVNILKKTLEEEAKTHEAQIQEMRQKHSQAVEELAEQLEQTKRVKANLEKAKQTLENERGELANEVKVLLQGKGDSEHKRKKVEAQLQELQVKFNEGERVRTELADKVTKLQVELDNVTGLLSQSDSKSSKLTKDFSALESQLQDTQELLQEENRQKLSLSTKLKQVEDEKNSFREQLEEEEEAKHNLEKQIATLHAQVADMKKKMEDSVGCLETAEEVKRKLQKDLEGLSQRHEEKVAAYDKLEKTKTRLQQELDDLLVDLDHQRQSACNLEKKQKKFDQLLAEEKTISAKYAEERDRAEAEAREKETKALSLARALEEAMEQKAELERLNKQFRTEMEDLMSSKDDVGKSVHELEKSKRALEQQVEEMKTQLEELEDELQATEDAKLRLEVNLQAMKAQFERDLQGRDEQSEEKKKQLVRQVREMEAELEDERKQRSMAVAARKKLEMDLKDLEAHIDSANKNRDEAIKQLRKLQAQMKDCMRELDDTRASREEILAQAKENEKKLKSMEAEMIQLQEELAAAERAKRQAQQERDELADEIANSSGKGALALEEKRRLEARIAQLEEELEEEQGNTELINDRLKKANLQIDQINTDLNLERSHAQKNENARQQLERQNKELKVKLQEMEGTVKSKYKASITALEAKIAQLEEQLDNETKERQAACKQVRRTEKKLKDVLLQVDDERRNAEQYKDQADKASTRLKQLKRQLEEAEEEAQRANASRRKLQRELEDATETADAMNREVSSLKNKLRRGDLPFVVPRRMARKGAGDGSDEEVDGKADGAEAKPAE
UniProt P39880: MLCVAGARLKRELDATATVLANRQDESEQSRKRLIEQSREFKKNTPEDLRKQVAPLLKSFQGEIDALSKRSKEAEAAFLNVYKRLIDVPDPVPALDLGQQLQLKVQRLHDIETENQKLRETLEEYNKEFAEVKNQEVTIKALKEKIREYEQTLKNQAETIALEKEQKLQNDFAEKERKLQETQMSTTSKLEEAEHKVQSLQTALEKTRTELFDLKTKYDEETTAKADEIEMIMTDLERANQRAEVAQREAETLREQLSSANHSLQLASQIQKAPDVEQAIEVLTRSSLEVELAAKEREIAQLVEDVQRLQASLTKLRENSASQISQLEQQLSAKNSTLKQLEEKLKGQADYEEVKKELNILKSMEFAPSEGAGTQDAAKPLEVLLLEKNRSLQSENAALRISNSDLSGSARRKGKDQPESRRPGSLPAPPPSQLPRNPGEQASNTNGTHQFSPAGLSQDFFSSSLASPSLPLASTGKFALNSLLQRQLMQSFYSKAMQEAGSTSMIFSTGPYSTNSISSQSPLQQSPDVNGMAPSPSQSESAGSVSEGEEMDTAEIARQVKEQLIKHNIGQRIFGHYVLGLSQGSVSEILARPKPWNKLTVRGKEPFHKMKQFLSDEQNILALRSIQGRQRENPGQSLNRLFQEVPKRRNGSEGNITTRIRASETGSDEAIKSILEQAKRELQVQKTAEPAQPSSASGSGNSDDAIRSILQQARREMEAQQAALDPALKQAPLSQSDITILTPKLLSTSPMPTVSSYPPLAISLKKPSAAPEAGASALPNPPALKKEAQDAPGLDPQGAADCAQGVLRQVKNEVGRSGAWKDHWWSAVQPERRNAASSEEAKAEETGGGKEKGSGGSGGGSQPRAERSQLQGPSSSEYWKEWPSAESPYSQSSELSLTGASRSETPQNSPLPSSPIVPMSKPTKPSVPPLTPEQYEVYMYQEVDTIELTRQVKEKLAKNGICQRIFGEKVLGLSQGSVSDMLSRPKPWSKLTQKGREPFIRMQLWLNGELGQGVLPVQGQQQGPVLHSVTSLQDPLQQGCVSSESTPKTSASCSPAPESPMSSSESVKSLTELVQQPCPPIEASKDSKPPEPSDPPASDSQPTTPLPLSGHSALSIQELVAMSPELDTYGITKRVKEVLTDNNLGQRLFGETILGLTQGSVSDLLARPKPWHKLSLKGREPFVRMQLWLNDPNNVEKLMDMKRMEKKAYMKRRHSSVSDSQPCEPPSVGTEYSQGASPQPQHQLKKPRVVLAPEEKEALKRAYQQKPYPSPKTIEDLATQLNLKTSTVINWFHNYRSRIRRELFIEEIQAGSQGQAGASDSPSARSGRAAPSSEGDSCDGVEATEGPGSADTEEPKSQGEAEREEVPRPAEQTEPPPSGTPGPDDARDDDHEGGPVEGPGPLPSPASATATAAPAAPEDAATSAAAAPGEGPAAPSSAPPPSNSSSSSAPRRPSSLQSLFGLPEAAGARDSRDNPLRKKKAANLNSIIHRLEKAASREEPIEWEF
UniProt P35250, whole entry, looked up: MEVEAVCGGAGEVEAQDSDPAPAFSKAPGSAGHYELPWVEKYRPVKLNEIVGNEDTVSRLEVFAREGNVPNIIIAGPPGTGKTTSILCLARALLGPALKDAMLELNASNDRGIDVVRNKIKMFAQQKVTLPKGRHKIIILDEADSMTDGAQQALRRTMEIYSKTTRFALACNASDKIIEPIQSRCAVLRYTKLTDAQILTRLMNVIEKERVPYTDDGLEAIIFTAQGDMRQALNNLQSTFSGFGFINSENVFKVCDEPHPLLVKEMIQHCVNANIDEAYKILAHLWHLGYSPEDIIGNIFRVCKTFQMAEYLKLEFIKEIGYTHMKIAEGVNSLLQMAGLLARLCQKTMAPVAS
UniProt P32321: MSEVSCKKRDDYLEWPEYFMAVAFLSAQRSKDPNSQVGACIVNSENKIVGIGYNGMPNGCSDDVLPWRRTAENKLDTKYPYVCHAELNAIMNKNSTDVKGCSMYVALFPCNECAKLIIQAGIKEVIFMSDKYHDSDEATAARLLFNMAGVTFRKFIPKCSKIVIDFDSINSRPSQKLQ
UniProt P31948, whole entry, looked up: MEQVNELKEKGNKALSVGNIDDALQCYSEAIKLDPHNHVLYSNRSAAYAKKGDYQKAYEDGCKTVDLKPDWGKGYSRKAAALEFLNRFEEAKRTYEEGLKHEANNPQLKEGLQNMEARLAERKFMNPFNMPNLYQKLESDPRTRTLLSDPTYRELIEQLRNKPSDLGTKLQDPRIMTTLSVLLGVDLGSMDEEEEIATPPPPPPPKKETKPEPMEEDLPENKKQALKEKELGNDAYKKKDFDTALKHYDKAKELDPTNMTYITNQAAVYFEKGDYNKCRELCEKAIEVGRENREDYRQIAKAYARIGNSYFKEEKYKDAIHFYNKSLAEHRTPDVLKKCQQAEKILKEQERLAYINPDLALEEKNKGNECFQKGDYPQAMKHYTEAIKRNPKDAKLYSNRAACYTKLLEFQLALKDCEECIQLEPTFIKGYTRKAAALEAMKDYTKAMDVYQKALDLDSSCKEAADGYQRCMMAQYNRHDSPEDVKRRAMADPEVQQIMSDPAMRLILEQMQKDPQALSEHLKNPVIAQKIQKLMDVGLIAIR
UniProt P38646: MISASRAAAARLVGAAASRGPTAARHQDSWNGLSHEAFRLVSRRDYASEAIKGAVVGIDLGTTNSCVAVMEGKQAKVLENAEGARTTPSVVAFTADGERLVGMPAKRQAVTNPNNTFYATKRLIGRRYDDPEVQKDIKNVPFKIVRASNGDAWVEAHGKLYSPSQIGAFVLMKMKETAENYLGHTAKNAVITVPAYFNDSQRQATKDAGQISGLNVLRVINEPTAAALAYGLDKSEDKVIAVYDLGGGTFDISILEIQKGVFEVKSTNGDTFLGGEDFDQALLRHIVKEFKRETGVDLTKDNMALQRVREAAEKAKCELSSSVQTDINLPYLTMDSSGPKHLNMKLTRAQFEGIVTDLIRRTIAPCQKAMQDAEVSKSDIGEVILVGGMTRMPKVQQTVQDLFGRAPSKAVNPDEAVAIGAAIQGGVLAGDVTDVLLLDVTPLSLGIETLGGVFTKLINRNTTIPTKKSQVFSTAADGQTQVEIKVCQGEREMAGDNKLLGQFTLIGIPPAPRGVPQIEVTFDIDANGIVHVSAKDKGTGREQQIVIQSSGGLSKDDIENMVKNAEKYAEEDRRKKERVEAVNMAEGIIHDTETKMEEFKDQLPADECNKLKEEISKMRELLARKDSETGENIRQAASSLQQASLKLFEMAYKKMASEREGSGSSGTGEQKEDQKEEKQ
UniProt P41567, whole entry, looked up: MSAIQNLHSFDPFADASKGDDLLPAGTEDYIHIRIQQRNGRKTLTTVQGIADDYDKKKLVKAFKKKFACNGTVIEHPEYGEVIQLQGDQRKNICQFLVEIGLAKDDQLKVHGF
UniProt P41252: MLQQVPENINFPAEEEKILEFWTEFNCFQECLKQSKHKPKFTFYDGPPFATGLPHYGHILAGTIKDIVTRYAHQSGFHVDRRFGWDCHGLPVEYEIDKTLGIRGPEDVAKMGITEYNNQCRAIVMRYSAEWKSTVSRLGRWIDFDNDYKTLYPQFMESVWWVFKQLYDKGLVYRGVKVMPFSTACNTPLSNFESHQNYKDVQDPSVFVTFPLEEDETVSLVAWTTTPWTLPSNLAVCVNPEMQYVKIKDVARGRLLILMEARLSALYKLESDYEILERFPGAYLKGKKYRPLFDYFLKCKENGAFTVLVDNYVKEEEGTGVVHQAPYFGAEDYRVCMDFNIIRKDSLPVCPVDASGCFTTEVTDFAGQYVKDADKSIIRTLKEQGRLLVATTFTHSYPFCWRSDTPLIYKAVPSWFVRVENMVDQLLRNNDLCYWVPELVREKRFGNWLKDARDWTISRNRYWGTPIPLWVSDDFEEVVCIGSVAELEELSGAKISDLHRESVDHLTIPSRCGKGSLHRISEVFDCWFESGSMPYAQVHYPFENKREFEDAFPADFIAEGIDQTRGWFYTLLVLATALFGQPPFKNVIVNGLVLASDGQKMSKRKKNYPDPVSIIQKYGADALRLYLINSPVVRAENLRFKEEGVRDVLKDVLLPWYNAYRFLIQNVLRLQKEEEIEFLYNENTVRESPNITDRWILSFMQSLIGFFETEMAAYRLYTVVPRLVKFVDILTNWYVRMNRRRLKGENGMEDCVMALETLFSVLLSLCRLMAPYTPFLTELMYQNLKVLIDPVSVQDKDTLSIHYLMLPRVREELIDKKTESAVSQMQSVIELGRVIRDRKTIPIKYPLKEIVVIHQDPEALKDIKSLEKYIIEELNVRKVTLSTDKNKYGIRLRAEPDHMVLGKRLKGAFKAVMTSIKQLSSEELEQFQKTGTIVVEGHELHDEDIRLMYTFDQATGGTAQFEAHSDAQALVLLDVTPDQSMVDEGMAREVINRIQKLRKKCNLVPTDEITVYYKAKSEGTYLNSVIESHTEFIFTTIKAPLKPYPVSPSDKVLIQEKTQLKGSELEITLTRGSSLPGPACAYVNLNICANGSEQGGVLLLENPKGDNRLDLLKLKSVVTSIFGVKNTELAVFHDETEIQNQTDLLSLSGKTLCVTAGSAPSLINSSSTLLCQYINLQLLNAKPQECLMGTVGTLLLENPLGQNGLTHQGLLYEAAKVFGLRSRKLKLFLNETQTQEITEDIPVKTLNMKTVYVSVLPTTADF

The entries are a selection whose mix differs from that of the whole data set. Single values of this set are uncertain.

Compound in the test: COC(=O)/C=C/c1ccccc1 [methyl cinnamate]
Briefly: log2 ratio of iodoacetamide-alkyne labeling of the cysteine site, DMSO over compound (competition); higher = stronger covalent engagement of the cysteine by the compound, active = 1 or more. As to conditions: 500 µM; treatment time 1 h; system: HEK293T cell lysate. In outline:
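HEK293T lysate at 2 mg/mL was treated with vehicle or electrophile (500 µM) for 1 h at ambient temperature, then labelled with iodoacetamide alkyne (1 h), clicked to sCIP-TMT reagents, pooled, digested with trypsin overnight at 37 °C, enriched on streptavidin and eluted with acid. Peptides were analysed by Orbitrap Eclipse LC-MS/MS with FAIMS and quantified in FragPipe, using duplicate channels and three replicates, with cysteines quantified in only one replicate excluded. The log2 competition ratio for each cysteine is the mean control-channel reporter intensity divided by the mean compound-channel reporter intensity.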
For UniProt P42356_C1774, the “log2 ratio of iodoacetamide-alkyne labeling” value (“log2 ratio” below) was inactive: -0.141.
Consider ETFB C42 (UniProt P38117), for which the “log2 ratio” value is inactive: 0.077.
To MYH9 C694 (UniProt P35579) belongs inactive: 0.18; to CUX1 C802 (UniProt P39880), inactive: 0.392.
To SRI C162 (UniProt P30626) belongs inactive: 0.236; to RPL4 C3 (UniProt P36578), inactive: 0.251.
For the target SHMT1 C68 (UniProt P34896), the “log2 ratio” value was inactive: 0.05.
NUP62 C475 (UniProt P37198): the “log2 ratio” value is inactive: 0.074.
To RFC2 C88 (UniProt P35250) belongs inactive: 0.0927; to DCTD C60 (UniProt P32321), inactive: 0.107; to ABCC1 C730 (UniProt P33527), inactive: 0.22.
To MDH1 C137 (UniProt P40925) belongs inactive: 0.152; to STIP1 C471 (UniProt P31948), inactive: 0.122; to CAP2 C32 (UniProt P40123), inactive: -0.0924.
As to RFC4 C48 (UniProt P35249), the “log2 ratio” value was inactive: 0.304.
On to TMPO C518 (UniProt P42166), for which the “log2 ratio” value is inactive: 0.179.
On to SLC7A1 C628 (UniProt P30825), for which the “log2 ratio” value is inactive: 0.227.
Turning to SHMT2 C91 (UniProt P34897), the “log2 ratio” value was inactive: 0.214.
To MTOR C300 (UniProt P42345) belongs inactive: -0.0732.
To LRPPRC C1277 (UniProt P42704) belongs inactive: 0.133; to MCM5 C397 (UniProt P33992), inactive: 0.266.
For LRPPRC C208 (UniProt P42704), the “log2 ratio” value was inactive: 0.0712.
Turning to HSPA9 C366 (UniProt P38646), the “log2 ratio” value is inactive: 0.236.
KIF5B C174 (UniProt P33176): the “log2 ratio” value is inactive: 0.148.
As to MATR3 C552 (UniProt P43243), the “log2 ratio” value was inactive: 0.146.
Regarding LRPPRC C571 (UniProt P42704), the “log2 ratio” value was inactive: 0.0791.
To MYH9 C896 (UniProt P35579) belongs inactive: -0.0889; to TXLNA C523 (UniProt P40222), inactive: 0.162; to GLRX C8 (UniProt P35754), inactive: 0.329.
Regarding UniProt P42356_C246, the “log2 ratio” value was inactive: 0.244.
With PPP1CC C105 (UniProt P36873), the “log2 ratio” value was inactive: 0.0212.
To MYH9 C1437 (UniProt P35579) belongs inactive: 0.195; to EIF1 C94 (UniProt P41567), inactive: 0.0774; to MYH10 C382 (UniProt P35580), inactive: 0.0873.
On to IARS C350 (UniProt P41252), for which the “log2 ratio” value was inactive: 0.101.
To NCAPD3 C1293 (UniProt P42695) belongs inactive: 0.339; to FDFT1 C374 (UniProt P37268), inactive: 0.173.
